Results deposited as PubChem BioAssay AID743454 (Peter MacCallum Cancer Centre, 2014).
The whole screen tested about 18,000 reagents; this is a part drawn at random. Over the whole deposit, 450 (2.5%) were called active. 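Single biological run; no consistent viability z cut-off exists, so the class columns, not z-scores, define the calls.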 A number with no mark means an inactive call.

Screen: 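Knock-downs lowering viability or raising caspase 3/7 activity in vorinostat-treated resistant cells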 (primary screen)
Cells: human HCT116-VR colon cancer cells, selected for vorinostat resistance
Knock-down reagent: siRNA pool against human genes, 40 nM siRNA pool
Time to read-out: vorinostat for 24 h, read-out about 72 h after transfection
Conditions: vorinostat at 2.5 µM final
Measured: 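Cell viability by CellTiter-Fluor and caspase 3/7 activity by luminescence, each scaled to mock wells per plate, duplicates averaged, then robust z-scored over all plates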
Scale: viability robust z-score: higher = more viable cells than screen typical; caspase robust z-score: higher = more caspase 3/7 activity than screen typical
Hit rule: 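Hits are knock-downs in viability class RV1/RV2 or caspase class CA1/CA2, excluding ones that killed cells in the no-drug cell-count arm; hits then retested with single siRNAs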

For MAP1A, what was measured?
viability hit class: no change; caspase hit class: no change; viability robust z-score: -2.04; caspase robust z-score: -1.19

For TLCD4, what does the deposit list?
viability hit class: no change; caspase hit class: no change; viability robust z-score: 0.09; caspase robust z-score: -1.13

With NELFB, what was measured?
viability hit class: no change; caspase hit class: no change; viability robust z-score: 0.53; caspase robust z-score: 0.03

What is on record for SELENBP1?
viability hit class: no change; caspase hit class: no change; viability robust z-score: -0.25; caspase robust z-score: 1.33

Which result is listed for DENND3?
viability hit class: no change; caspase hit class: no change; viability robust z-score: -0.92; caspase robust z-score: 0.58

For WASHC2C, what does the deposit list?
viability hit class: no change; caspase hit class: no change; viability robust z-score: -0.26; caspase robust z-score: 1.05

For CCL11, what does the deposit list?
viability hit class: no change; caspase hit class: no change; viability robust z-score: -0.28; caspase robust z-score: -0.24

For HELZ, what was measured?
viability hit class: no change; caspase hit class: no change; viability robust z-score: 0.32; caspase robust z-score: 0.93

How did the screen score FBXO16?
viability hit class: no change; caspase hit class: no change; viability robust z-score: -0.29; caspase robust z-score: -1.16

Which result is listed for GPR160?
viability hit class: no change; caspase hit class: no change; viability robust z-score: 0; caspase robust z-score: -0.92

With TRPC6, what does the deposit list?
viability hit class: no change; caspase hit class: no change; viability robust z-score: -0.2; caspase robust z-score: 1.68

With PCDHA9, what was measured?
viability hit class: no change; caspase hit class: no change; viability robust z-score: -1.83; caspase robust z-score: 4.04

With MRTFA, how do the results read?
viability hit class: no change; caspase hit class: no change; viability robust z-score: 1.71; caspase robust z-score: -0.74

Ordered by “viability robust z-score” (high to low): 2 of the entries above.
MRTFA | viability hit class = no change; caspase hit class = no change; viability robust z-score = 1.71; caspase robust z-score = -0.74
PCDHA9 | viability hit class = no change; caspase hit class = no change; viability robust z-score = -1.83; caspase robust z-score = 4.04

The listing continues:
How did the screen score TPST1?
viability hit class: no change; caspase hit class: no change; viability robust z-score: -0.37; caspase robust z-score: -0.04

How did the screen score EFNA2?
viability hit class: no change; caspase hit class: no change; viability robust z-score: -0.46; caspase robust z-score: -0.31

With ZNF350, how do the results read?
viability hit class: no change; caspase hit class: no change; viability robust z-score: 0.37; caspase robust z-score: 1.98

For NOL4, what was measured?
viability hit class: no change; caspase hit class: no change; viability robust z-score: 0.56; caspase robust z-score: 0.92

For TNFAIP1, what does the deposit list?
viability hit class: no change; caspase hit class: no change; viability robust z-score: 1.1; caspase robust z-score: -0.38

Which result is listed for PEX19?
viability hit class: no change; caspase hit class: no change; viability robust z-score: 0.3; caspase robust z-score: -0.7

With UGT1A5, how do the results read?
viability hit class: no change; caspase hit class: no change; viability robust z-score: 1.07; caspase robust z-score: -0.36

What is on record for SPACA4?
viability hit class: no change; caspase hit class: no change; viability robust z-score: -0.62; caspase robust z-score: -0.23
